Assay [1] addresses T1, DIP-δplasmin (UniProt P00747 97-810, limits assumed, active site blocked with diisopropylfluorophosphate (DFP)).
T1 construct: domain: protease domain and the first kringle domain; immobilised on a CM5 chip
In words: SPR (FIG. 13).

The chains behind the UniProt entries cited, without tags or fusion partners. Where a name states a change or a piece, a line headed by the entry shows the natural chain unless it says otherwise. A line that says so, or that is headed by a name, gives the form on record, which may keep a tag or linker.
DIP-δplasmin (P00747, form named): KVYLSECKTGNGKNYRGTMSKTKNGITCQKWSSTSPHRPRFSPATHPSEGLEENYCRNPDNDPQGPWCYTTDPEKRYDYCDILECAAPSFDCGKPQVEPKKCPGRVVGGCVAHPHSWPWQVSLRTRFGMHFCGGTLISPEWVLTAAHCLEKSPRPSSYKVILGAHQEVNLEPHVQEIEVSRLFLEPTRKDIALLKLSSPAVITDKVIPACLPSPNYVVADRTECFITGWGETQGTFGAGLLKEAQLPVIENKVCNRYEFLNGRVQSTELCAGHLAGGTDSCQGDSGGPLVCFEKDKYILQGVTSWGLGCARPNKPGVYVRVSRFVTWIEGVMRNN

In assay [2] the target is T1, DIP-δplasmin. The assay can be described thus: SPR (Biacore T100), DIP-δplasmin amine-coupled to a CM5 chip, KD1-Y11T/L17R-KT as analyte [A].

Results are given in words; binding and its absence hold for the method and conditions named. Some results given as binding are weak or reduced against the parent protein; the word gives no strength.

B1: KD1-Y11T/L17R-KT (Pichia) (designed binder)
chain: NAEICLLPLDTGPCRARLLRYYYDRYTQSCRQFLYGGCEGNANNFYTWEACDDACWRIEK
notes: 60-residue double mutant without tag; also called KD1DM; P. pastoris expressed KD1-Y11T/L17R-KT
For B1, the binding entry with DIP-δplasmin [1] and in the assay with DIP-δplasmin [2] was “binds” each time.
